Patent US20160194696
The exact form of at least one protein or probe is not confirmed. The comparison behind a weaker result is the experiment's own reference, which may not be listed here.

System: PvuRts1I
Experiment: enzyme reaction in vitro
Conditions: RT 2 h, purified recombinant protein, protein details: New England Biolabs

GGTTGGACTCAAGACGATACTTACCGGATAAGGCGCAATTAGATTACTTAACCT (double strand) [hmC/C]
activity on this sequence (5hmC at top position 20 (SEQ 1 / SEQ 5) [top 20 (5hmC)], similar activity to hmC/hmC at highest concentration, letters built from the parent sequence and the stated change, variant of hmC/hmC): active

GGTTGGACTCAAGACGATACTTACCGGATAAGGCGCAATTAGATTACTTAACCT (double strand) [hmC/mC]
activity on this sequence (5hmC at top position 20, 5mC at bottom position 13 (SEQ 1 / SEQ 4) [top 20 (5hmC), bottom 13 (5mC)], similar activity to hmC/hmC at highest concentration, letters built from the parent sequence and the stated change, variant of hmC/hmC): active

GGTTGGACTCAAGACGATACTTACCGGATAAGGCGCAATTAGATTACTTAACCT (double strand) [mC/mC]
activity on this sequence (5mC at top position 20 and bottom position 13 (SEQ 2 / SEQ 4), partial non-specific digestion, variant of hmC/hmC): less active

GGTTGGACTCAAGACGATACTTACCGGATAAGGCGCAATTAGATTACTTAACCT (double strand) [hmC/hmC]
activity on this sequence (5hmC at top position 20 and bottom position 13 (SEQ 1 / SEQ 3; listing omits the modified base) [top 20 (5hmC), bottom 13 (5hmC)], 10-fold serial dilutions from 110 ng/ul, 32 and 22 bp products, letters built from the parent sequence and the stated change): active

GGTTGGACTCAAGACGATACTTACCGGATAAGGCGCAATTAGATTACTTAACCT (double strand) [mC/C]
activity on this sequence (5mC at top position 20 (SEQ 2 / SEQ 5), partial non-specific digestion, variant of hmC/hmC): less active

GGTTGGACTCAAGACGATACTTACCGGATAAGGCGCAATTATATTACTTAACCT (double strand) [hmC/nonC]
activity on this sequence (5hmC at top position 20 (SEQ 6 / SEQ 7) [top 20 (5hmC)], similar activity to hmC/hmC at highest concentration, no second C needed, letters built from the parent sequence and the stated change, variant of hmC/hmC): active
